# PubChem BioAssay AID2685 (National Center for Advancing Translational Sciences (NCATS), 2010)
# The other results are listed elsewhere or left out. The main result of the screen is listed elsewhere. These columns were measured beside it and carry no call. Compounds called inactive in the main read-out are mostly missing here. Potencies come from curve fits of mixed quality, noted in brackets.
# Assay: qHTS Assay for Lipid Storage Modulators in Drosophila S3 Cells;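 as to cell number change: cells counted by Cell Tracker Red CMTPX staining in the red channel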
# Conditions: BODIPY lipid droplet fluorescence, 18-24 h; for cell number change: measured here: cell count max response, cells fed with added oleic acid
# Outline: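 Drosophila S3 cells got compounds at several concentrations plus oleic acid (400 uM solution). Laser-scanning cytometry with 488 nm excitation read lipid droplets at 500-530 nm and cells at 575-640 nm. Percent activity was relative to 20 uM Triacsin C.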
# [1] = measured here: cell number channel AC50, cells fed with added oleic acid
# [2] = measured here: lipid fluorescence (Fed channel) AC50, cells fed with added oleic acid
Structure (SMILES),cell number change,AC50 [1],AC50 [2]
O=P1(NCCCn2cc[n+](Cc3nc4ccccc4[nH]3)c2)C=C(c2ccccc2)OC(c2ccccc2)=C1,19%,"6.51 µM [rising, partial curve]",–
C[C@]12CCC3=C4CCC(=O)C=C4CC[C@H]3C1CC[C@@H]2O (some centres undefined),-83.8%,"18.4 µM [falling, single point]","20.6 µM [falling, single point]"
CN1CCN(c2ccc(Cl)cc2N)CC1,-9.19%,"5.17 µM [falling, single point]",–
CCCNC(=O)N1[C@H]2CC[C@@H]1C(C(=O)OC)=C(c1ccc(F)cc1F)C2,11.3%,–,"29.1 µM [rising, single point]"
CCOC(=O)C(O)(c1ccc(NC(=S)NC(=O)c2ccc(Cl)cc2Cl)c(C)c1)C(F)(F)F (centres undefined),-5.49%,–,"29.1 µM [falling, single point]"
CC1CN=C(NCc2ccc(F)cc2)S1 (centres undefined),101%,"23.1 µM [rising, single point]",–
COc1ccc(C2N3CC(C)(C)CN23)cc1 (centres undefined),9.99%,–,"5.17 µM [rising, single point]"
CN1CCN(c2nc3ccccc3c(=O)n2-c2ccccc2)CC1,-31%,"3.66 µM [falling, full curve]","29.1 µM [falling, single point]"
Cc1ccccc1N1CCN(C2CCCN(C(=O)Cc3c(C)noc3C)C2)CC1 (centres undefined),16.2%,"2.91 µM [rising, partial curve, poor fit]",–
O=C(CN1CC=C(c2ccccc2)CC1)NC(=O)NCc1ccco1,-1.82%,–,"1.3 µM [rising, partial curve, poor fit]"
O=P(C(c1ccc2c(c1)OCO2)N1CCOCC1)(N1CCOCC1)N1CCOCC1 (centres undefined),9.98%,–,"25.9 µM [rising, single point]"
COCc1c(CN)cnc(C)c1N,4.09%,–,"5.17 µM [falling, full curve]"
O=C(N/N=C1/CN2CCC1CC2)c1cccc(O)c1,-32.9%,"3.66 µM [falling, full curve, poor fit]","13 µM [falling, partial curve]"
CCN1CCN(c2ccc(N)cc2)CC1,-29.8%,–,"32.6 µM [falling, single point]"
CC(=O)Nc1ccc(OC(=O)N(C)C)cc1,0.223%,–,"0.058 µM [falling, full curve, poor fit]"
O=C1CN(C(=O)CN2CCCCC2)C(c2ccccc2)c2cc(Br)ccc2N1 (centres undefined),-28.3%,–,"18.4 µM [falling, single point]"
C1CC2OC2CC1C1CO1 (centres undefined),14.6%,–,"0.00731 µM [falling, full curve, poor fit]"
COc1ccc(C)cc1NC1=NCCCS1,-124%,"23.1 µM [falling, partial curve]","29.1 µM [falling, partial curve]"
c1ccc2c(c1)[nH]c1cnccc12,-5.27%,–,"16.4 µM [rising, partial curve]"

# A few values from the entries so far.
# Value of CN1CCN(c2nc3ccccc3c(=O)n2-c2ccccc2)CC1 under AC50 [2]: 29.1 µM [falling, single point]
# Value of CC(=O)Nc1ccc(OC(=O)N(C)C)cc1 under AC50 [2]: 0.058 µM [falling, full curve, poor fit]

# (continued)

Structure (SMILES),cell number change,AC50 [1],AC50 [2]
COC(=O)C1=C(c2ccc(F)cc2OCc2ccccc2)C[C@@H]2CC[C@H]1N2C(=O)NCc1ccc(C(C)(C)C)cc1,0.0614%,–,"0.731 µM [rising, single point]"
COCCNC(=O)N1[C@H]2CC[C@@H]1C(C(=O)OC)=C(c1ccc(OC(F)(F)F)cc1)C2,-3.62%,"0.00461 µM [falling, full curve, poor fit]","0.00461 µM [falling, full curve, poor fit]"
CCN(CC)C(=O)c1ccc(NC(=O)c2cc(-n3cnnc3)ccc2Cl)cc1,18.8%,–,–
CC(C)(C)c1ccc(C(=O)C2CCCN(Cc3ccon3)C2)cc1 (centres undefined),-14.8%,–,"14.6 µM [falling, partial curve]"
CCC(C)n1c(O)c(/C=N/Nc2ccccc2)c(=O)[nH]c1=S (centres undefined),109%,"5.8 µM [rising, full curve]",–
Cc1cc(-c2ccccc2)cc(-c2ccccc2)[n+]1CCc1ccccc1,-80.8%,"5.8 µM [falling, full curve]","20.6 µM [falling, single point]"
Cc1ccsc1CNCCc1ccc(F)cc1,–,–,"25.9 µM [rising, single point]"
COc1cc(C(=O)Nc2ccc(Br)cc2C(=O)c2ccccc2Cl)cc(OC)c1OC,-2.16%,–,"2.91 µM [rising, partial curve]"
CCC(C)N=Cc1c(O)n(-c2ccccc2)c(=O)[nH]c1=O (centres undefined),-87.2%,"32.6 µM [falling, single point]","0.00517 µM [falling, full curve, poor fit]"
CNC(=S)NC1CC2CCCC(C1)N2CC(C)C (centres undefined),-5.75%,–,–
O=S1(=O)N(CCN2CC=C(c3c[nH]c4cc(F)ccc34)CC2)c2cccc3c2N1CCC3,-10.1%,–,"11.6 µM [falling, partial curve]"
Clc1ccccc1CNC1CN2CCC1CC2 (centres undefined),-31.6%,"0.461 µM [falling, full curve, poor fit]","3.26 µM [falling, partial curve, poor fit]"
CN1C(=O)C(c2ccc([N+](=O)[O-])cc2[N+](=O)[O-])C(=O)N(C)C1=O,21.9%,–,"5.8 µM [rising, partial curve]"
COc1ccc(Br)cc1CNCCc1cccc(Cl)c1,-36%,"8.2 µM [falling, partial curve, poor fit]",–
COc1ccc(CCNCc2ccc(C)s2)cc1OC,32.3%,"0.146 µM [rising, full curve, poor fit]","29.1 µM [rising, single point]"
O=Cc1cn(Cc2ccc(F)cc2)c2ccccc12,-14.1%,–,"18.4 µM [rising, partial curve]"
O=c1cccc2n1CC1CC2CN(Cc2cccc(Cl)c2Cl)C1 (centres undefined),-15.6%,–,"0.517 µM [falling, full curve, poor fit]"
CC(C)(C)C(=O)Nc1ccc(S(=O)(=O)N2CC3CC(C2)c2cccc(=O)n2C3)cc1 (centres undefined),9.09%,–,–
